# Experimental data taken from publication doi:10.1101/2021.03.24.436784.
# Where two headings read alike, the source gives them in different places. These are yes or no findings as the source states them, for the method shown. In cells and extracts the contact can be indirect. These calls come from enrichment with a bait or labelling near it, and not all partners need be listed. For some assays here: A no says only that the protein was not detected with the bait. Sequences can lack the tags named with a protein.
# T1: Buc-GFP (full length Bucky ball fused to GFP) (zebrafish) (UniProt H0WFA5)
# T1 sequence: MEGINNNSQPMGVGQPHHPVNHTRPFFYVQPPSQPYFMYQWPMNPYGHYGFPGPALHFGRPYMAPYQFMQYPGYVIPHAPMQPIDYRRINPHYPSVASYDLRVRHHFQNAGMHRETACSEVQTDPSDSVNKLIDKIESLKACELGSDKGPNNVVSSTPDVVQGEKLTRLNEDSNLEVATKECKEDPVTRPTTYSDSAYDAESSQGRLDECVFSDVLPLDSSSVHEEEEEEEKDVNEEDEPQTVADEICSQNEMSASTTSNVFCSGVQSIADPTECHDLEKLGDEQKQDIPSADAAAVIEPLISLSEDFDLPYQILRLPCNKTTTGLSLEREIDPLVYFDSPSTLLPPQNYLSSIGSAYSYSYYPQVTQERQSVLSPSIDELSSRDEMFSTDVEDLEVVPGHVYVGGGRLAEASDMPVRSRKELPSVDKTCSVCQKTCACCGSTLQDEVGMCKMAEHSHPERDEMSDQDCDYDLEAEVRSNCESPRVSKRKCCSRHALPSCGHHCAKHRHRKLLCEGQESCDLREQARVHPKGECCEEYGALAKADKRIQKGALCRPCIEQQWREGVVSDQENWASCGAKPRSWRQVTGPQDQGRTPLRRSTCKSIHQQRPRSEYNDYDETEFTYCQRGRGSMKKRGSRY
# T2: BucLoc-GFP (Bucky ball aa 11-88 fused to GFP) (zebrafish) (UniProt H0WFA5)
# T2 sequence: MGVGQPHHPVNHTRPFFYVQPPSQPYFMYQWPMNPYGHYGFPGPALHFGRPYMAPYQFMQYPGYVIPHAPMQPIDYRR
# B1: Claudin-d (Cldn-d) (protein, UniProt Q9YH91 1-208)
# chain: MASVGLQLLATVLAIIGWLGEIVICALPMWKVTAFIGNNIVTAQIFWEGLWMNCVQQSTGQMQCKVYDSMLALPQDLQAARALVVISIIVTFMGVFLTIAGGKCTNCIEDQDAKAKVVVAAGVFFLVGGILCLIPVCWSANSVIKDFYNPTLSDAQKRELGASLFIGWCASGLLLLGGALLCCQCPKNEGRAYSVKYSAPRSAPGAYV
# Experiments:
# Assay in all cases: affinity purification with mass spectrometry
# [1] = target: T1, Buc-GFP (full length Bucky ball fused to GFP) (zebrafish)
# [2] = target: T2, BucLoc-GFP (Bucky ball aa 11-88 fused to GFP) (zebrafish)
# [3] = target: T1, Buc-GFP (full length Bucky ball fused to GFP) (zebrafish); remark: listed apart in the source
# [4] = target: T2, BucLoc-GFP (Bucky ball aa 11-88 fused to GFP) (zebrafish); remark: listed apart in the source
Molecule,binding [1],binding [2],binding [3],binding [4]
Cldn-a (zebrafish (endogenous in embryos)),no binding,,,
Myosin Light Chain (zebrafish (endogenous in embryos)),binds,binds,,
B1,,,binds,binds
